Among the data in publication doi:10.1101/2023.09.11.557111 are binding values, retold here.

By UniProt entry, the sequences of proteins in these tests, tags left out. Where a name states a change or a piece, a line headed by the entry shows the natural chain unless it says otherwise.
UniProt Q8BVE8, whole entry: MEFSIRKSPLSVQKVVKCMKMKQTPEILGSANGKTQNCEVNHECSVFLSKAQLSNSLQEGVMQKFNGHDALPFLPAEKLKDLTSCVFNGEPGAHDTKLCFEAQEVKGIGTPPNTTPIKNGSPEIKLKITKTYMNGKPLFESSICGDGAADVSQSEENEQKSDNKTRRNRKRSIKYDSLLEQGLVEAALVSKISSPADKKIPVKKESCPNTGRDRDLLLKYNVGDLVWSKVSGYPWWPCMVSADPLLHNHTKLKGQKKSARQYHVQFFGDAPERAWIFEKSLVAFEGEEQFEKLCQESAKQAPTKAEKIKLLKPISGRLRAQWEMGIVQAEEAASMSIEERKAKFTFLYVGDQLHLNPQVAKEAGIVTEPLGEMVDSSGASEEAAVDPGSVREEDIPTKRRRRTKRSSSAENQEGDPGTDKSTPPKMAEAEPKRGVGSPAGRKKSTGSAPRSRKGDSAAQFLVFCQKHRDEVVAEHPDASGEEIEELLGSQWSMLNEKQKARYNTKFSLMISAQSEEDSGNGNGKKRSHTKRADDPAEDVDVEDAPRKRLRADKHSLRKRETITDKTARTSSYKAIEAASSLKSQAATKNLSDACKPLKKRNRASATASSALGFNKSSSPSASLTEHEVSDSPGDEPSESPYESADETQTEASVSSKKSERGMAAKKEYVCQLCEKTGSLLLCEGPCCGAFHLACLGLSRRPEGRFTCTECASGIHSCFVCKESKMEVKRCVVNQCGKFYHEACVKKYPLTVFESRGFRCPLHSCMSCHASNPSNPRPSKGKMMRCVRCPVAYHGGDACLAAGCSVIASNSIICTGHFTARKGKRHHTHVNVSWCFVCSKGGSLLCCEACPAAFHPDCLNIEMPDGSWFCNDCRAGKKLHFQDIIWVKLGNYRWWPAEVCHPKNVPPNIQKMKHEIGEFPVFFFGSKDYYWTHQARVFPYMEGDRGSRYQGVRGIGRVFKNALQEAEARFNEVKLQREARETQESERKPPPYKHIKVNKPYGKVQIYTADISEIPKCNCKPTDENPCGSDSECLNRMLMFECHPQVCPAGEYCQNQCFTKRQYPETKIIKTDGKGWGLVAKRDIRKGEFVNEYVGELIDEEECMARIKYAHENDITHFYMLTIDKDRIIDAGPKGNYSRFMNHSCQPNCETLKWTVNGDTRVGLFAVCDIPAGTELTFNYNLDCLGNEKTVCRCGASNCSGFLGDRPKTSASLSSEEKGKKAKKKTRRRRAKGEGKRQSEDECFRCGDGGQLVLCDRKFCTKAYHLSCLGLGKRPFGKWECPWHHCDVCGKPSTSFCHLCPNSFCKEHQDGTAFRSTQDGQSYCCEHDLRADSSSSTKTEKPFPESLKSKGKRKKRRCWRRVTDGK
UniProt O96028, whole entry, looked up, stated change not applied: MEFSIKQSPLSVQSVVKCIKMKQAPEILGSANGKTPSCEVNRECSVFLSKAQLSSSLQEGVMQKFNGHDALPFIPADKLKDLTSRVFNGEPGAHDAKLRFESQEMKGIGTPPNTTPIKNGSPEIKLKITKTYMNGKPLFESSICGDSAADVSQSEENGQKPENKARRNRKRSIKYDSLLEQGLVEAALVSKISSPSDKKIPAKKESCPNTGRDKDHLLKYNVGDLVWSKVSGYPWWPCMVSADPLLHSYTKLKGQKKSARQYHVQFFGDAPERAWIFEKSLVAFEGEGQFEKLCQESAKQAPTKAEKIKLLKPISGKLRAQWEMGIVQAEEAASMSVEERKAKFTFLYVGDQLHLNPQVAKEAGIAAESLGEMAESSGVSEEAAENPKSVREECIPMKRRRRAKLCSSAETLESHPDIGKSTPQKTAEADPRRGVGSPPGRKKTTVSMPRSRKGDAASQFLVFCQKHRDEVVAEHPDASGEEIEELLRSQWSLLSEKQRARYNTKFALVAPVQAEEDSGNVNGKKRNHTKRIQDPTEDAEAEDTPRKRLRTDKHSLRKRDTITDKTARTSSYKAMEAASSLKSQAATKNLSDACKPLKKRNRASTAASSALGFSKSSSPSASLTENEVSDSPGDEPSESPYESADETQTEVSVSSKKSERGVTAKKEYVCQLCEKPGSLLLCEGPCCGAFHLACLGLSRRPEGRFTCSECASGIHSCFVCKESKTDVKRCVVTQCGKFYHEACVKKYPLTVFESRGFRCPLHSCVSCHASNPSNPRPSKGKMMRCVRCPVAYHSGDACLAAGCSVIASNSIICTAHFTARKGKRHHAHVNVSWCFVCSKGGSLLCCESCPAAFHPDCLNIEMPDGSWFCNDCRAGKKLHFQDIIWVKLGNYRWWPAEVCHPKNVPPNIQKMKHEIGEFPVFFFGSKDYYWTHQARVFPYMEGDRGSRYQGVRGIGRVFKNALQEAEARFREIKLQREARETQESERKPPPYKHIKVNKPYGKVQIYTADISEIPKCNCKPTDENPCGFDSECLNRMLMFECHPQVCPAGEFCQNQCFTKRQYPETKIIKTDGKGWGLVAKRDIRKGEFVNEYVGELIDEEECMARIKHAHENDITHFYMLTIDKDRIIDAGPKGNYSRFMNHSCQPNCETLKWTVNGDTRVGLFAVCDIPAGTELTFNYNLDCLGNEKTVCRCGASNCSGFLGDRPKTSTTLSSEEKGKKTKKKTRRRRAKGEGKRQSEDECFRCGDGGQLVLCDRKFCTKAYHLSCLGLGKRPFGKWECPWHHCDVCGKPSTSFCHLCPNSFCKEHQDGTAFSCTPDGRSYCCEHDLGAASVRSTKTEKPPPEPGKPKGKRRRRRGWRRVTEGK
UniProt Q04207, whole entry: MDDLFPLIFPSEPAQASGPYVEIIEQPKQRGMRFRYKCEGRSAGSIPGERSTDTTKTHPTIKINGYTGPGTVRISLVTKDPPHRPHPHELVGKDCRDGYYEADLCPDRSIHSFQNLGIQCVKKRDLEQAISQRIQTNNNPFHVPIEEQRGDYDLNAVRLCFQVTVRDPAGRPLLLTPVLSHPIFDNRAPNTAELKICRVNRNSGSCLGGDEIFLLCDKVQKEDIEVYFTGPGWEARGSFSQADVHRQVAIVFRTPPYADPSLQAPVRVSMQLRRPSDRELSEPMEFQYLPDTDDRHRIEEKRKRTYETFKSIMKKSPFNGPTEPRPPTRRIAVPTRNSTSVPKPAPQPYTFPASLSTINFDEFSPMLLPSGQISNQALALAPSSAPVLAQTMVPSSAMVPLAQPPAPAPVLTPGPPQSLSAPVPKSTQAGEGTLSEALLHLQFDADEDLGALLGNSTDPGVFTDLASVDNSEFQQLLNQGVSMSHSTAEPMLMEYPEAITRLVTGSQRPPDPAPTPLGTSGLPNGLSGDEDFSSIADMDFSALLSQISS
UniProt Q04206, whole entry: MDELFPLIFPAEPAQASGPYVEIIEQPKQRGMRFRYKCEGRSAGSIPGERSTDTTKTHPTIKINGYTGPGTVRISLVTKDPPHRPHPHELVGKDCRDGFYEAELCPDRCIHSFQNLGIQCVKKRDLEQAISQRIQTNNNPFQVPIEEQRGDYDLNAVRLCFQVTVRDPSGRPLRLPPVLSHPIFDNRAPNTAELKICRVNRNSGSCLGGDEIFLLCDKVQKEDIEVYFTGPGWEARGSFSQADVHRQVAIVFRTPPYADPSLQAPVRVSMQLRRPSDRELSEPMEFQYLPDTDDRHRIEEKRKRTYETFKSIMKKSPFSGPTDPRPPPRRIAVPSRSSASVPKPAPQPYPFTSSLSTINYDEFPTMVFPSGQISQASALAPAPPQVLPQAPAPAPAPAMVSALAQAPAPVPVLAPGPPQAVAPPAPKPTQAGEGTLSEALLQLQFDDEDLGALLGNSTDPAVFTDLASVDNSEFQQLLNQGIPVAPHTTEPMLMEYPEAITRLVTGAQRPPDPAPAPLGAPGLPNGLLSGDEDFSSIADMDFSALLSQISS

No constants are given. Whether binding was seen depends on the method and setting. In cells and extracts the contact can be indirect. Some results given as binding are weak or reduced against the parent protein; the word gives no strength.

Assay [1] addresses NSD2 (endogenous, KPC1199 cells) (mouse (endogenous in KPC1199)) (UniProt Q8BVE8). Put plainly: co-IP.
The next assay addresses Flag-NSD2 Y1179A (UniProt O96028). Put plainly: co-IP.

Regarding “p65 (endogenous, KPC1199 cells) (from UniProt Q04207 1-549)”, the binding result in assay [1] is given as “binds”.

For “HA-p65 (full-length) (from UniProt Q04206 1-551)”, the binding result in the assay with Flag-NSD2 Y1179A is “binds”.
